The results in this text go back to PMC11229326, “Structural characterization of two prototypical repressors of SorC family reveals tetrameric assemblies on DNA and mechanism of function” (Nucleic Acids Research, 2024).

For some of these results: A negative result means that nothing was seen under these conditions. Protein sequences can lack the tags named with them. For some of these results: The exact form of at least one protein or probe is not confirmed. For some of these results: Weaker means in comparison with the reference protein, sequence or condition of that experiment.

The target in data set [1] is T1, DeoR (Bacillus subtilis) (UniProt P39140).
T1 sequence (looked up): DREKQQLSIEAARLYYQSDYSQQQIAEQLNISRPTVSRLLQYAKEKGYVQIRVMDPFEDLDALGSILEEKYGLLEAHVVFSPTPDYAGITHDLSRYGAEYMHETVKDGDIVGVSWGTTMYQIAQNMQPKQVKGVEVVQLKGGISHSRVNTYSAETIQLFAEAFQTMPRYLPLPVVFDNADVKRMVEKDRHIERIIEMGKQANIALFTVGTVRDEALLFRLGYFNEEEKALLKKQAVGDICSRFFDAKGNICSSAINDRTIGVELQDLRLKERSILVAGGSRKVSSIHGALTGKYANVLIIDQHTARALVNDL
Briefly: SEC. The note with it: about 56 uM DeoR, protein:DNA 2:1; recombinant protein; residues 2-313.

Data set [2] concerns the target T1, DeoR (Bacillus subtilis). The data set is described as follows: mass photometry. The note with it: 30 nM, no mass change on DNA addition, attributed to low affinity; recombinant protein; residues 2-313.
The next data set concerns the target T2, CggR (Bacillus subtilis) (UniProt O32253).
T2 sequence (looked up): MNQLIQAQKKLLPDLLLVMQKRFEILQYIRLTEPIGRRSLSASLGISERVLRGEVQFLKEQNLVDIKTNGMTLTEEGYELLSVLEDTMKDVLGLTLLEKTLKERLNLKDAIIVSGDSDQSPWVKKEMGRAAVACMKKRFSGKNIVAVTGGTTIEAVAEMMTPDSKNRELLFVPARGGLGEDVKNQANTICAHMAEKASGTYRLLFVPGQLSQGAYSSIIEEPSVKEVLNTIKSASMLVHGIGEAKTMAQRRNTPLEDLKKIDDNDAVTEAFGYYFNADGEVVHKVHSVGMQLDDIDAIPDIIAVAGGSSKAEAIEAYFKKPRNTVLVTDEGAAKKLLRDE
Briefly: cryo-EM. The note with it: complex disassembles, recombinant protein, residues 1-340.

On to “ATTGAACAAAATTTCAAT (double strand) [OL18]”, for which, in the data set with DeoR (Bacillus subtilis) [1], the binding result is on record as “no binding”.

Turning to “GTGACACGTTCAAACCTTTCATTGAACAAAATTTCAATTACCAATTTACATATGTTCAAAAGTCG (double strand) [OLR65]”, the binding result in the data set with DeoR (Bacillus subtilis) [2] is given as “no binding”.

As to “TGACGGGACGTTTTTTGTCATAGCGGGACATATAATGTCCAGCAA (double strand) [CggR OLR (45 bp)]”, the binding result in the data set with CggR (Bacillus subtilis) (dihydroxyacetone phosphate) and with CggR (Bacillus subtilis) (fructose-1,6-bisphosphate) was “binds more weakly” each time.
